{
  "source": "patent US20240122957A1",
  "about": "“USE OF NICOTINAMIDE MONONUCLEOTIDE (NMN) FOR THE PREVENTION AND/OR TREATMENT OF RHEUMATOID ARTHRITIS, AND CORRESPONDING COMPOSITIONS” (NUVAMID SA, priority 2019, published 2024)",
  "test_system": "C57BL6/J mice treated with K/BxN serum (RA model)",
  "assay": "K/BxN serum-induced RA model in mice (clinical score, paw thickness, paw photographs)",
  "format": "in vivo",
  "description": "Here, NMN was used in zwitterionic form. […] Dexamethasone was administered subcutaneously.",
  "note": "For at least one compound, name, drawing or mass did not settle the structure.",
  "data": [
    {"smiles": "C[C@@H]1C[C@H]2[C@@H]3CCC4=CC(=O)C=C[C@]4(C)[C@@]3(F)[C@@H](O)C[C@]2(C)[C@@]1(O)C(=O)CO", "note": "[dexamethasone, reference compound]", "values": [
      {"measurement": "paw swelling (photographs of the paws)", "setting": "day 6 of treatment, compared to mouse treated with K/BxN, FIG. 4", "result": "substantially reduces paw swelling"},
      {"measurement": "average paw thickness (ankle joint inflammation)", "setting": "versus KBxN group, NMN 185 mg/kg intraperitoneally, dexamethasone 1 mg/kg subcutaneously, FIG. 3", "result": "significantly reduces ankle joint inflammation"},
      {"measurement": "average clinical score", "setting": "versus KBxN group, NMN 185 mg/kg intraperitoneally, dexamethasone 1 mg/kg subcutaneously, measured daily, 9 days, FIG. 2", "result": "brings the clinical score to values near those of the control group"}
    ]}
  ]
}
